Assay results taken from the supplement of paper PMC3741180, “A Novel High Throughput Biochemical Assay to Evaluate the HuR Protein-RNA Complex Formation” (PLoS ONE, 2013).
The other results are listed elsewhere or left out. Repeats in this data set agree poorly, so a single value says little.

Sequences of proteins named here, by UniProt entry; tags and fusion partners are left off.
UniProt Q15717, whole entry: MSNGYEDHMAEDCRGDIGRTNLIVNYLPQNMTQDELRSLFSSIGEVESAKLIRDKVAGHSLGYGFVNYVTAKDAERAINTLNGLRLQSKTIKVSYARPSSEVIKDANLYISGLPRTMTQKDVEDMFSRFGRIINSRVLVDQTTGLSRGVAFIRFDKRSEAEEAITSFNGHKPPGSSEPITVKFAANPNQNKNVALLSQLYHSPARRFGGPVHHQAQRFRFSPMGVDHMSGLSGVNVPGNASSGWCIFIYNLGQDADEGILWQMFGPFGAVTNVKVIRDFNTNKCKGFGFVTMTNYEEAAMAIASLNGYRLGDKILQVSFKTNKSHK

Molecular target: HuR (ELAVL1) - TNFalpha ARE RNA complex (UniProt Q15717)
Test: AlphaScreen HuR-RNA complex signal Z-score relative to positive (Bi-TNF, DMSO) controls (Z-score (SD units of positive control)); higher = more complex signal
Conditions: screen stage: primary screen; compound concentration: 25 nM

Row | Structure (SMILES) | AlphaScreen HuR-RNA complex signal Z-score
1 | O=C(O)c1cccnc1C(=O)O | 1.99
2 | O=C(O)c1ccccc1 | 0.457
3 | C=C[C@@]1(C)CC(=O)[C@@]2(O)[C@](C)(O1)[C@@H](O)[C@@H](O)C1C(C)(C)CC[C@H](O)[C@@]12C (stereo not given in full) | 1.21
4 | COc1ccc(C(C)=O)c(OC)c1 | 1.81
5 | CC(NCCc1ccc(O)cc1)C(O)c1ccc(O)cc1 (stereo not given) | 0.519
6 | CCC1(C)CC(=O)NC1=O (stereo not given) | 0.565
7 | NC[C@@H]1O[C@H](O[C@H]2[C@@H](O)[C@H](O[C@@H]3[C@@H](O)[C@H](N)C[C@H](N)[C@H]3O[C@H]3O[C@H](CN)[C@@H](O)[C@H](O)[C@H]3N)O[C@@H]2CO)[C@H](N)[C@@H](O)[C@@H]1O | 4.89
8 | CCCCS(=N)(=O)CCC(N)C(=O)O (stereo not given) | 2.03
9 | CC(=O)O[C@@H]1CC2C(C)(C)[C@H](O)CC[C@]2(C)C2CC[C@@]3(C)[C@H](c4ccoc4)OC(=O)C4OC43[C@@]21C (stereo partly drawn) [alpha-DIHYDROGEDUNOL] | 2.26
10 | CC(=O)Oc1ccc(C(c2ccc(OC(C)=O)cc2)c2ccccn2)cc1 | 0.315
11 | CC1(C)CC2C1CC[C@]1(CBr)CCC3C(CC(=O)O)C(=O)O[C@@]32C1 (stereo not given in full) [BROMO-3-HYDROXY-4-(SUCCIN-2-YL)-CARYOLANE gamma-LACTONE] | 0.879
12 | CCCc1nn(C)c2c(=O)[nH]c(-c3cc(S(=O)(=O)N4CCN(C)CC4)ccc3OCC)nc12 | 1.4
13 | O=C1CC[C@]23/C=C/C(=O)NCCCCNCCCNC(=O)/C=C/c4ccc(c2c4)O[C@@H]3C1 | 1.77
14 | O=C(O)c1ccccc1Nc1cccc(C(F)(F)F)c1 | 0.622
15 | CC(=O)Nc1ccc(S(=O)(=O)c2ccc(NC(C)=O)cc2)cc1 | 0.0324
16 | O=C1O[C@H]([C@@H](O)CO)C(O)=C1O | 0.39
17 | Clc1ccc(C(c2ccccc2Cl)C(Cl)Cl)cc1 (stereo not given) | 0.315
18 | C[C@@H]1CC[C@@]2(OC1)O[C@H]1C[C@H]3[C@@H]4CC=C5C[C@@H](O)CC[C@]5(C)[C@H]4CC[C@]3(C)[C@H]1[C@@H]2C | 1.08
19 | CC(=O)Oc1cc(C)c2c(c1C=O)Oc1c(c(C)c(OC(C)=O)c3c1C(OC(C)=O)OC3=O)OC2=O (stereo not given) | -0.324
20 | Nc1ccc(C(=O)O)c(O)c1 | 0.112

Row | Structure (SMILES) | AlphaScreen HuR-RNA complex signal Z-score
21 | Cc1c(S(=O)(=O)O)oc2c1C(=O)C(=O)c1c-2ccc2c1CCCC2(C)C | 1.59
22 | NCCCS(=O)(=O)O | 1.66
23 | Nc1nc(/C(=C/CC(=O)O)C(=O)N[C@@H]2C(=O)N3C(C(=O)O)=CCS[C@H]23)cs1 | 2.58
24 | O=C(/C=C/c1ccccc1)c1ccc(O)cc1 | 0.656
25 | CN(C)CCOC(=O)C(c1ccccc1)C1(O)CCCC1 (stereo not given) | -3.29
26 | Nc1ccc(/N=N/c2ccccc2)c(N)n1 | -2.12
27 | CCN(CC)CCNC(=O)c1cc(Br)c(N)cc1OC | 1.01
28 | CCCCC(=O)N(Cc1ccc(-c2ccccc2-c2nnn[nH]2)cc1)[C@H](C(=O)O)C(C)C | 2.89
29 | C[C@H]1C(=O)CC[C@@H]2[C@]1(C)CC[C@H]1[C@@]2(C)CC[C@@]2(C)[C@@H]3CC(C)(C)CC[C@]3(C)CC[C@]12C | 2.73
30 | OC(CCN1CCCCC1)(c1ccccc1)c1ccccc1 | 2.28
31 | O=C1c2cccc(O)c2C(=O)c2c(O)cccc21 | 0.315
32 | CCOC(N)=O | 0.553
33 | CCCCCCCCCCCC[C@@H](C(=O)O)[C@H](C)C(=O)O | 2.42
34 | O=C(O)c1cc(=O)c2ccccc2[nH]1 | 0.654
35 | O=C(O)CCC(=O)c1ccc(-c2ccccc2)cc1 | 0.62
36 | C[C@H]1[C@H](C)CC[C@]2(C(=O)O)CC[C@]3(C)C(=CC[C@@H]4[C@@]5(C)C[C@@H](O)[C@H](O)[C@@](C)(CO)[C@@H]5[C@H](O)C[C@]43C)[C@H]12 | 1.44
37 | CN1CCN2c3ccccc3Cc3ccccc3C2C1 (stereo not given) | 3.29
38 | N[C@@H](Cc1ccc(O)c(O)c1)C(=O)O | 2.63
39 | CCC(C)C(NC)C(=O)O (stereo not given) | 1.78
40 | Cc1nc2sccn2c(=O)c1CCN1CCC(=C(c2ccc(F)cc2)c2ccc(F)cc2)CC1 | 0.764

Row | Structure (SMILES) | AlphaScreen HuR-RNA complex signal Z-score
41 | CO[C@H]1C[C@H](O[C@@H]2/C(C)=C/C[C@@H]3C[C@@H](C[C@]4(CC[C@H](C)[C@@H](C5CCCCC5)O4)O3)OC(=O)[C@@H]3C=C(C)/C(=N/O)[C@H]4OC/C(=C\C=C\[C@@H]2C)[C@]43O)O[C@@H](C)[C@@H]1O | 1.15
42 | O=C1c2c(O)ccc(O)c2C(=O)c2c(NCCNCCO)ccc(NCCNCCO)c21 | -2.01
43 | COc1cc(O)cc(OC)c1OC | 1.37
44 | O=C(NC(Cc1cc(=O)[nH]c2ccccc12)C(=O)O)c1ccc(Cl)cc1 (stereo not given) | -0.249
45 | CC(C)(C)NC[C@H](O)COc1cccc2c1CCCC2=O | -2.51
46 | C[N+](C)(C)CCOC(N)=O | 0.31
47 | COC(=O)C[C@H]1C2(C)CC34OC5(C)O[C@@]6([C@H](OC)C(OC(=O)C(C)C)[C@]7(C)C(/C(=C(/OC)C(C)C)C(=O)O[C@H]7c7ccoc7)[C@@]6(O5)[C@H](OC)[C@@]3(OC)C2OC(C)=O)[C@]14C (stereo not given in full) | 0.271
48 | COC(=O)[C@H]1[C@H]2C[C@H]3c4[nH]c5cc(OC)ccc5c4CCN3C[C@H]2C[C@@H](OC(=O)c2cc(OC)c(OC)c(OC)c2)[C@@H]1OC | 2.15
49 | CC1=CCc2c(cc3oc(C)cc(=O)c3c2O)OC1 | 2
50 | CC1(C)O[C@@H]2C[C@H]3[C@@H]4C[C@H](F)C5=CC(=O)CC[C@]5(C)[C@H]4[C@@H](O)C[C@]3(C)[C@]2(C(=O)CO)O1 | 3.96
51 | CCC(=O)OCC(=O)[C@@]1(OC(=O)CC)[C@@H](C)C[C@H]2[C@@H]3CCC4=CC(=O)C=C[C@]4(C)[C@@]3(F)[C@@H](O)C[C@@]21C | 1.28
52 | CC1(C)CC2C1CCC1(C)OC1CCC2(C)O (stereo not given) | 2.51
53 | O[n+]1ccccc1S.O[n+]1ccccc1S.[Zn+2] | -3.13
54 | NNC(=O)c1ccncc1 | -0.15
55 | CCN1CCCC1CNC(=O)c1cc(S(N)(=O)=O)ccc1OC (stereo not given) | 1.28
56 | O=C(O)c1cc2cc(F)ccc2[nH]1 | 4.62
57 | O=C(O)c1cccnc1 | -1.82
58 | CCCCc1oc2ccccc2c1C(=O)c1cc(I)c(OCCN(CC)CC)c(I)c1 | 4.5
59 | Cc1cccc(N(C)C(=S)Oc2ccc3ccccc3c2)c1 | -0.736
60 | Nc1ccc(S(=O)(=O)O)cc1.Nc1ccc(S(=O)(=O)O)cc1.[Zn] | 0.493

Given as comma-separated lines: part of the list above.
Row,Structure (SMILES),AlphaScreen HuR-RNA complex signal Z-score
11,CC1(C)CC2C1CC[C@]1(CBr)CCC3C(CC(=O)O)C(=O)O[C@@]32C1 (stereo not given in full) [BROMO-3-HYDROXY-4-(SUCCIN-2-YL)-CARYOLANE gamma-LACTONE],0.879
12,CCCc1nn(C)c2c(=O)[nH]c(-c3cc(S(=O)(=O)N4CCN(C)CC4)ccc3OCC)nc12,1.4
13,O=C1CC[C@]23/C=C/C(=O)NCCCCNCCCNC(=O)/C=C/c4ccc(c2c4)O[C@@H]3C1,1.77
14,O=C(O)c1ccccc1Nc1cccc(C(F)(F)F)c1,0.622
15,CC(=O)Nc1ccc(S(=O)(=O)c2ccc(NC(C)=O)cc2)cc1,0.0324
